This is one part of the list. Many values rest on one well or one pass, so single values are uncertain.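 Imaging used 1,536-well plates; nuclei positive for cleaved PARP by antibody were divided by total DNA-stained nuclei to yield the apoptosis fraction. Doses for screening kept most cells viable, and cell lines differ markedly in resting and induced cleaved-PARP levels.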
Assays:
Test in all cases: cleaved PARP positive nuclei fraction relative to DMSO control; melanoma cells; higher = more apoptosis
Settings in all cases: library dose: low library concentration; 72 h
[1] = system: 501Mel
[2] = system: A101D
[3] = system: A2058
[4] = system: A375
[5] = system: C32
[6] = system: CBRC008 (line from a melanoma biopsy)
[7] = system: CBRC013 (line from a melanoma biopsy)
[8] = system: CBRC014 (line from a melanoma biopsy)
[9] = system: CBRC016 (line from a melanoma biopsy)
[10] = system: CBRC017 (line from a melanoma biopsy)
[11] = system: COLO792
[12] = system: COLO800
[13] = system: COLO829
[14] = system: G361
[15] = system: IPC-298
[16] = system: IST-MEL1
[17] = system: LB2518-MEL
[18] = system: LOXIMVI
[19] = system: MEL-HO

Structure (SMILES)	cleaved PARP positive nuclei fraction [1]	cleaved PARP positive nuclei fraction [2]	cleaved PARP positive nuclei fraction [3]	cleaved PARP positive nuclei fraction [4]	cleaved PARP positive nuclei fraction [5]	cleaved PARP positive nuclei fraction [6]	cleaved PARP positive nuclei fraction [7]	cleaved PARP positive nuclei fraction [8]	cleaved PARP positive nuclei fraction [9]	cleaved PARP positive nuclei fraction [10]	cleaved PARP positive nuclei fraction [11]	cleaved PARP positive nuclei fraction [12]	cleaved PARP positive nuclei fraction [13]	cleaved PARP positive nuclei fraction [14]	cleaved PARP positive nuclei fraction [15]	cleaved PARP positive nuclei fraction [16]	cleaved PARP positive nuclei fraction [17]	cleaved PARP positive nuclei fraction [18]	cleaved PARP positive nuclei fraction [19]
Cn1nnc2c(C(N)=O)ncn2c1=O [temozolomide] + COc1cc(Nc2ncc(F)c(Nc3ccc4c(n3)NC(=O)C(C)(C)O4)n2)cc(OC)c1OC [Tamatinib] (first compound 2 µM, partner dose 0.4 µM)	70.6%	112%	219%	64.1%	149%	79.5%	155%	84.2%	110%	89.7%	211%	112%	107%	124%	77.4%	217%	112%	135%	70.8%
OCc1c[nH]c2ccccc12 [Indole-3-carbinol] + O=C(Nc1cccc(Cl)c1)Nc1ncc(CCNc2ncnc3ccsc23)s1 [SNS314] (first compound 0.8 µM, partner dose 0.0008 µM)	157%	76.2%	105%	23.5%	127%	93.8%	96.2%	72.5%	96.3%	89.1%	20.6%	80.3%	101%	57.2%	53.5%	112%	63.5%	88.3%	117%
C=CCn1c(=O)c2cnc(Nc3ccc(N4CCN(C)CC4)cc3)nc2n1-c1cccc(C(C)(C)O)n1 + CC(C)(C)c1cnc(CSc2cnc(NC(=O)C3CCNCC3)s2)o1 [SNS-032] (first compound 0.02 µM, partner dose 0.01 µM)	80.5%	108%	58.5%	363%	104%	104%	160%	119%	56.1%	215%	78.4%	156%	49.9%	75.3%	89.5%	37.9%	110%	77.9%	27.1%
C#Cc1cccc(Nc2ncnc3cc(OCCOC)c(OCCOC)cc23)c1 [erlotinib] + COc1cc2c(Oc3ccc4[nH]c(C)cc4c3F)ncnc2cc1OCCCN1CCCC1 [cediranib] (first compound 0.8 µM, partner dose 0.4 µM)	100%	38.3%	17.3%	124%	107%	193%	202%	103%	76.4%	93.8%	120%	79.4%	97.4%	125%	132%	184%	18.5%	33.3%	144%
Cn1nnc2c(C(N)=O)ncn2c1=O [temozolomide] + O=C(Nc1cccc(Cl)c1)Nc1ncc(CCNc2ncnc3ccsc23)s1 [SNS314] (first compound 2 µM, partner dose 0.0008 µM)	66.6%	172%	127%	23.4%	79.1%	52.5%	65%	110%	97.8%	80.9%	123%	202%	97.4%	123%	197%	201%	96.2%	25.7%	88.2%
Cn1c(Nc2ccc(C(F)(F)F)cc2)nc2cc(Oc3ccnc(-c4ncc(C(F)(F)F)[nH]4)c3)ccc21 + CC1(C)NC(=O)N(c2ccc([N+](=O)[O-])c(C(F)(F)F)c2)C1=O [nilutamide] (first compound 0.08 µM, partner dose 1 µM)	268%	78.7%	391%	185%	31.4%	277%	82.7%	113%	21%	109%	459%	58%	263%	151%	170%	187%	197%	154%	179%
CO[C@@H]1[C@H](N(C)C(=O)c2ccccc2)C[C@H]2O[C@]1(C)n1c3ccccc3c3c4c(c5c6ccccc6n2c5c31)C(=O)NC4 [Midostaurin] + CC(C)(C)c1cnc(CSc2cnc(NC(=O)C3CCNCC3)s2)o1 [SNS-032] (first compound 0.08 µM, partner dose 0.01 µM)	80.8%	90.9%	56.5%	56.5%	250%	59.1%	137%	92.4%	211%	77.6%	72.9%	114%	57.9%	107%	48.5%	251%	104%	100%	71.4%
COc1cc(Nc2ncc(F)c(Nc3ccc4c(n3)NC(=O)C(C)(C)O4)n2)cc(OC)c1OC [Tamatinib] + NCC(=O)Nc1ccc(-n2nc(C(F)(F)F)cc2-c2ccc3c(ccc4ccccc43)c2)cc1 [OSU03012] (first compound 0.4 µM, partner dose 1 µM)	101%	109%	82.7%	2950%	40.8%	529%	249%	321%	147%	99.1%	429%	329%	230%	75.3%	108%	459%	149%	951%	323%
OCc1c[nH]c2ccccc12 [Indole-3-carbinol] + CN(C)S(=O)(=O)c1ccc2c(c1)/C(=C/c1cc3c([nH]1)CCCC3)C(=O)N2 [SU6656] (first compound 0.8 µM, partner dose 0.4 µM)	84.2%	47.3%	30.4%	265%	102%	127%	159%	111%	163%	108%	33.7%	61.7%	51.2%	52.9%	175%	106%	126%	55.9%	448%
COc1cc(Nc2ncc(F)c(Nc3ccc4c(n3)NC(=O)C(C)(C)O4)n2)cc(OC)c1OC [Tamatinib] + COc1cc2c(Oc3ccc4[nH]c(C)cc4c3F)ncnc2cc1OCCCN1CCCC1 [cediranib] (first compound 0.4 µM, partner dose 0.4 µM)	102%	205%	77.1%	122%	101%	391%	130%	178%	26%	109%	247%	115%	64.1%	65%	111%	63.9%	137%	79.7%	69.5%
O=C(CCCCCCC(=O)Nc1ccccc1)NO [vorinostat] + CO[C@@H]1[C@H](N(C)C(=O)c2ccccc2)C[C@H]2O[C@]1(C)n1c3ccccc3c3c4c(c5c6ccccc6n2c5c31)C(=O)NC4 [Midostaurin] (first compound 0.08 µM, partner dose 0.08 µM)	105%	227%	61.6%	121%	115%	79.5%	98.7%	86%	185%	99.3%	138%	97.4%	152%	130%	300%	422%	56.9%	102%	211%
Cc1nc(Nc2ncc(C(=O)Nc3c(C)cccc3Cl)s2)cc(N2CCN(CCO)CC2)n1 [dasatanib] + CN(NC(=O)CC(=O)NN(C)C(=S)c1ccccc1)C(=S)c1ccccc1 [STA4783] (first compound 0.004 µM, partner dose 0.006 µM)	206%	340%	145%	3690%	237%	4420%	84.9%	505%	45.3%	170%	375%	93.7%	161%	157%	47%	89.4%	147%	145%	165%
C[C@]1(c2nc3c(C(N)=O)cccc3[nH]2)CCCN1 [Veliparib] + O=C(O)c1ccc(-c2c[nH]c3ncc(-c4ccccc4)cc23)cc1C1CCCC1 [GSK650394] (first compound 1.4 µM, partner dose 0.16 µM)	91.6%	98.4%	234%	29.8%	90.3%	70.7%	141%	120%	114%	92.2%	84.1%	99.3%	165%	123%	66%	37.8%	71%	124%	223%
OCCn1cc(-c2cnc3nnn(Cc4ccc5ncccc5c4)c3n2)cn1 + CN(NC(=O)CC(=O)NN(C)C(=S)c1ccccc1)C(=S)c1ccccc1 [STA4783] (first compound 1 µM, partner dose 0.006 µM)	132%	173%	166%	396%	123%	1220%	115%	272%	111%	99.8%	114%	143%	165%	117%	44.7%	116%	60.2%	107%	64.1%
OCCn1cc(-c2cnc3nnn(Cc4ccc5ncccc5c4)c3n2)cn1 + NCC(=O)Nc1ccc(-n2nc(C(F)(F)F)cc2-c2ccc3c(ccc4ccccc43)c2)cc1 [OSU03012] (first compound 1 µM, partner dose 1 µM)	283%	66.5%	243%	4150%	110%	41.1%	178%	77.9%	95.4%	84.1%	25.9%	138%	104%	146%	69.2%	109%	96.3%	20.6%	73%
COc1cc(Nc2ncc(F)c(Nc3ccc4c(n3)NC(=O)C(C)(C)O4)n2)cc(OC)c1OC [Tamatinib] + Cn1cncc1[C@@](N)(c1ccc(Cl)cc1)c1ccc2c(c1)c(-c1cccc(Cl)c1)cc(=O)n2C [tipifarnib] (first compound 0.4 µM, partner dose 0.01 µM)	133%	134%	57.9%	322%	259%	248%	107%	122%	52.3%	117%	196%	98.7%	103%	133%	390%	113%	638%	208%	78%
Cc1ccc(NC(=O)c2cccc(N(C)C)c2)cc1NC(=O)c1ccc(O)cc1 + OCCn1cc(-c2cnc3nnn(Cc4ccc5ncccc5c4)c3n2)cn1 [PF04217903] (first compound 2 µM, partner dose 1 µM)	257%	42%	174%	99.1%	192%	77.1%	107%	100%	109%	125%	159%	54%	152%	52.7%	107%	34.7%	90.6%	44%	72.2%

Two entries from above, bar-delimited:
Structure (SMILES) | cleaved PARP positive nuclei fraction [1] | cleaved PARP positive nuclei fraction [2] | cleaved PARP positive nuclei fraction [3] | cleaved PARP positive nuclei fraction [4] | cleaved PARP positive nuclei fraction [5] | cleaved PARP positive nuclei fraction [6] | cleaved PARP positive nuclei fraction [7] | cleaved PARP positive nuclei fraction [8] | cleaved PARP positive nuclei fraction [9] | cleaved PARP positive nuclei fraction [10] | cleaved PARP positive nuclei fraction [11] | cleaved PARP positive nuclei fraction [12] | cleaved PARP positive nuclei fraction [13] | cleaved PARP positive nuclei fraction [14] | cleaved PARP positive nuclei fraction [15] | cleaved PARP positive nuclei fraction [16] | cleaved PARP positive nuclei fraction [17] | cleaved PARP positive nuclei fraction [18] | cleaved PARP positive nuclei fraction [19]
C=CCn1c(=O)c2cnc(Nc3ccc(N4CCN(C)CC4)cc3)nc2n1-c1cccc(C(C)(C)O)n1 + CC(C)(C)c1cnc(CSc2cnc(NC(=O)C3CCNCC3)s2)o1 [SNS-032] (first compound 0.02 µM, partner dose 0.01 µM) | 80.5% | 108% | 58.5% | 363% | 104% | 104% | 160% | 119% | 56.1% | 215% | 78.4% | 156% | 49.9% | 75.3% | 89.5% | 37.9% | 110% | 77.9% | 27.1%
C#Cc1cccc(Nc2ncnc3cc(OCCOC)c(OCCOC)cc23)c1 [erlotinib] + COc1cc2c(Oc3ccc4[nH]c(C)cc4c3F)ncnc2cc1OCCCN1CCCC1 [cediranib] (first compound 0.8 µM, partner dose 0.4 µM) | 100% | 38.3% | 17.3% | 124% | 107% | 193% | 202% | 103% | 76.4% | 93.8% | 120% | 79.4% | 97.4% | 125% | 132% | 184% | 18.5% | 33.3% | 144%

Reference: the supplement of paper PMC4604168 (melanoma cell lines)
